Measurements reported in publication PMC8891600.
Results are given in words; binding and its absence hold for the method and conditions named. Binding seen in cells or lysates may run through a third protein. Some binding calls cover weakened binding; strength is not graded here. For some assays here: Where a sequence is shown, tags or fusion partners need not be part of it. Each block holds one molecule with its values, some of them ahead of it.

Amino acid sequences for entries named in this document (tags omitted).
UniProt Q8BG36: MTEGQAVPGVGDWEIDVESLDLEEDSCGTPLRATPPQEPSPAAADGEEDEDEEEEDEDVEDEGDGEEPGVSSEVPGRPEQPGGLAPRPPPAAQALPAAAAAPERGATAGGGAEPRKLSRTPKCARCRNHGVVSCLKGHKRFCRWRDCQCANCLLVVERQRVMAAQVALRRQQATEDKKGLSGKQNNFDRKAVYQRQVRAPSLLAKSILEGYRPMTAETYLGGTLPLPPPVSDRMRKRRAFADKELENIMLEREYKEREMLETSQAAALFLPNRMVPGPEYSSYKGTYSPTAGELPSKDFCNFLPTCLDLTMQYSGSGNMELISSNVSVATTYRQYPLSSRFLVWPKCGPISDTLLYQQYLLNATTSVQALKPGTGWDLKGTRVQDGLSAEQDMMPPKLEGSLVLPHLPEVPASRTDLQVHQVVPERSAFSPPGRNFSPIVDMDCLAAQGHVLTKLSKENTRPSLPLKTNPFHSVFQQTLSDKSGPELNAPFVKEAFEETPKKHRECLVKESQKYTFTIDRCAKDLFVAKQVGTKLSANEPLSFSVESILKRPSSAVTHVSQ

Legend:
[1] = biological target: T1, FXR (endogenous) (mouse (endogenous in 3T3-L1)) (UniProt Q60641); assay: co-IP; endogenous proteins; untransfected 3T3-L1 adipocyte lysate, Dynabeads conjugated with anti-FXR; Western blot for DMRT2 and FXR
T1 sequence: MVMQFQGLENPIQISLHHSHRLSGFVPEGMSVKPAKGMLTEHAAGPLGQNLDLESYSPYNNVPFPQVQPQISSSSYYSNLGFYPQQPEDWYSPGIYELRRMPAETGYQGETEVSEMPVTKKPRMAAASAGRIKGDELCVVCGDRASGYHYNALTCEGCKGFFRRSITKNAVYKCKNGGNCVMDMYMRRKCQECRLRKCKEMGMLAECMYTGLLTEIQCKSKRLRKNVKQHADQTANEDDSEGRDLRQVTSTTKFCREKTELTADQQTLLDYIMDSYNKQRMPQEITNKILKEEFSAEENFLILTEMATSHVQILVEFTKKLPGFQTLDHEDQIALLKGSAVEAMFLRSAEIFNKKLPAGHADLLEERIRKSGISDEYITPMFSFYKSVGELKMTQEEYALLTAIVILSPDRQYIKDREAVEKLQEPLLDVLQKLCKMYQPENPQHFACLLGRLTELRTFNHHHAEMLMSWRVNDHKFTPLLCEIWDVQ

Flag-DMRT2 = Flag-DMRT2 (UniProt Q8BG36); assay: co-IP; Flag-DMRT2 and FXR-HA co-transfected into 3T3-L1 adipocytes, 48 h; lysate supernatant incubated with Dynabeads conjugated with anti-Flag at 4°C overnight; Western blot for Flag and HA

binding [1]: binds
Molecule: DMRT2 (endogenous) (from UniProt Q8BG36 1-561)

binding (Flag-DMRT2): binds
B1: FXR-HA (protein, UniProt Q60641 1-488)
chain: T1 sequence
